Data source: PubChem BioAssay AID1259405 (NCATS, 2018)

Test: 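Silenced genes that increase secreted GFP made by CHO cells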 (primary screen)
System: Chinese hamster CHO-K1 ovary cells with stable secreted eGFP expression
Reagent: single siRNA against mouse genes, 0.8 pmol siRNA per well (2 µl of 400 nM stock)
Timing: 3 days
Read-out: 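Per-well intracellular GFP measured by laser scanning cytometry, plus viability from ATP luminescence, each relative to plate median of non-targeting control wells, in %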
Scale: GFP, % of control: higher = more GFP per well, higher productivity; viability (ATP), % of control: higher = more viable cells (more ATP)
Rule for the call: 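Called active when intracellular GFP, relative to negative control, is at or above 120%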
This is a random part of about 50,000 reagents tested. In the full data, about 4,000 (8%) got an active call. 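Mouse siRNA library applied to hamster cells; one well for each siRNA.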 Reagents against one gene are numbered here. Reagent sequences are not shown.

no.	gene symbol	reagent no.	GFP, % of control	viability (ATP), % of control	activity call
1	Grk4	1	109	98	inactive
2	Grk4	2	32.2	35.6	inactive
3	Grk4	3	102	112	inactive
4	Bmp5	1	41.4	46.3	inactive
5	Bmp5	2	50.9	54.3	inactive
6	Bmp5	3	59.3	73.6	inactive
7	Ftsj3	1	74.9	70.9	inactive
8	Ftsj3	2	80.2	64.3	inactive
9	Ftsj3	3	91.3	66.2	inactive
10	Cd46	1	50.1	85.3	inactive
11	Cd46	2	43	64.9	inactive
12	Cd46	3	52.3	60.1	inactive
13	Or4c102	1	66.2	69.8	inactive
14	Or4c102	2	53	74.2	inactive
15	Or4c102	3	50	96.5	inactive
16	Pla2g2d	1	78.5	67.8	inactive
17	Pla2g2d	2	93.7	75.4	inactive
18	Pla2g2d	3	72.3	83.5	inactive
19	Gfod2	1	54.5	49.4	inactive
20	Gfod2	2	88.8	75.2	inactive
21	Gfod2	3	111	102	inactive
22	Dbndd1	1	98.1	54.2	inactive
23	Dbndd1	2	71.2	93.6	inactive
24	Dbndd1	3	94.1	60.1	inactive
25	Slc25a17	1	12.4	14.7	inactive
26	Slc25a17	2	65	88.6	inactive
27	Slc25a17	3	154	92.6	active
28	Slc25a17	4	80.6	104	inactive
29	Slc25a17	5	76.3	95.6	inactive
30	Slc25a17	6	81.4	64.7	inactive
31	Nherf4	1	46.6	55.2	inactive
32	Nherf4	2	142	45.1	active
33	Nherf4	3	53.8	128	inactive
34	Pja1	1	129	86.8	active
35	Pja1	2	70.1	72.9	inactive
36	Pja1	3	88.7	89.5	inactive
37	Spata1	1	84.4	83	inactive
38	Spata1	2	41.9	24.7	inactive
39	Spata1	3	111	90.3	inactive
40	Abhd12	1	76.7	74.2	inactive
41	Abhd12	2	134	89.7	active
42	Abhd12	3	121	118	active
43	Prl2b1	1	56.2	67.5	inactive
44	Prl2b1	2	82	78.8	inactive
45	Prl2b1	3	56.7	53.9	inactive
46	Or4p21	1	58.4	25.2	inactive
47	Or4p21	2	108	84	inactive
48	Or4p21	3	80.8	110	inactive
49	Rnaseh2b	1	121	67.1	active
50	Rnaseh2b	2	51.1	47.5	inactive
51	Rnaseh2b	3	65.4	62	inactive
52	Or5c1	1	54.8	40.1	inactive
53	Or5c1	2	84.1	85.4	inactive
54	Or5c1	3	103	21.1	inactive
55	Pgap3	1	62.7	30.5	inactive
56	Pgap3	2	91.4	77.9	inactive
57	Pgap3	3	77.7	110	inactive
58	E130308A19Rik	1	65.2	85.3	inactive
59	E130308A19Rik	2	58.4	40.5	inactive
60	E130308A19Rik	3	103	69.1	inactive
61	Polr3e	1	77.7	75.1	inactive
62	Polr3e	2	63.1	67	inactive
63	Polr3e	3	51.7	62.4	inactive
64	Or10aa3	1	76.3	82.3	inactive
65	Or10aa3	2	91.6	98.1	inactive
66	Or10aa3	3	57.7	57.6	inactive
67	H2ax	1	88.6	92.8	inactive
68	H2ax	2	57.3	88.3	inactive
69	H2ax	3	64.6	70.1	inactive
70	Vps28	1	44	46.8	inactive
71	Vps28	2	83.6	63.5	inactive
72	Vps28	3	90.1	91.5	inactive
73	Elmo3	1	41.7	32	inactive
74	Elmo3	2	69.3	86.9	inactive
75	Elmo3	3	60.2	54	inactive
76	Fam234a	1	87.2	40.9	inactive
77	Fam234a	2	95.4	78.1	inactive
78	Fam234a	3	89.1	71.6	inactive
79	1700001G17Rik	1	111	89.8	inactive
80	1700001G17Rik	2	45.4	53.9	inactive
81	1700001G17Rik	3	88.4	79	inactive
82	Gfus	1	122	78	active
83	Gfus	2	73	74	inactive
84	Or4l15	1	74	88.9	inactive
85	Or4l15	2	78	82	inactive
86	Or4l15	3	81.7	82	inactive
